The target of test [1] is T1, Rad21-PK (cohesin kleisin subunit Rad21) (S. pombe) (UniProt P30776).
T1 sequence: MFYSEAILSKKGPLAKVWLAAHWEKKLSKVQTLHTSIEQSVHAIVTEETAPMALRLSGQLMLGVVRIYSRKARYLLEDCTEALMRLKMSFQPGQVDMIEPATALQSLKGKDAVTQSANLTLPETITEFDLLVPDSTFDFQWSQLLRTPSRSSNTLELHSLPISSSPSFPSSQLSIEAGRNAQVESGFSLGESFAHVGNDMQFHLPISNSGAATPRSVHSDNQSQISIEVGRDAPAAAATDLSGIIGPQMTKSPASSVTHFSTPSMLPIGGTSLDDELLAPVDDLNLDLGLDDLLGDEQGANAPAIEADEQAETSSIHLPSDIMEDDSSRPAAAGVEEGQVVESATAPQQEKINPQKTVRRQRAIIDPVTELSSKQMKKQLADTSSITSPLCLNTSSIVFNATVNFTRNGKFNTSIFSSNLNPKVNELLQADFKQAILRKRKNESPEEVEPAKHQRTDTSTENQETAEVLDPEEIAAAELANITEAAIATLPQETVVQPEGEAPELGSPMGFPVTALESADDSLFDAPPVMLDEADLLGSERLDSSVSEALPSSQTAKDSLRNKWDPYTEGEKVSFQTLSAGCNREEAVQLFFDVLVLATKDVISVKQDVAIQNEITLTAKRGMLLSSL
Description: co-IP; Rad21-PK IP from protein extracts of cdc10-129-arrested cells, western blot; repeated in mip1-R401G and mip1+ cells. In general terms: Immunoblotting shows a protein as a band on a membrane.

By UniProt entry, the sequences of proteins in these tests, tags left out.
UniProt Q9Y7K2: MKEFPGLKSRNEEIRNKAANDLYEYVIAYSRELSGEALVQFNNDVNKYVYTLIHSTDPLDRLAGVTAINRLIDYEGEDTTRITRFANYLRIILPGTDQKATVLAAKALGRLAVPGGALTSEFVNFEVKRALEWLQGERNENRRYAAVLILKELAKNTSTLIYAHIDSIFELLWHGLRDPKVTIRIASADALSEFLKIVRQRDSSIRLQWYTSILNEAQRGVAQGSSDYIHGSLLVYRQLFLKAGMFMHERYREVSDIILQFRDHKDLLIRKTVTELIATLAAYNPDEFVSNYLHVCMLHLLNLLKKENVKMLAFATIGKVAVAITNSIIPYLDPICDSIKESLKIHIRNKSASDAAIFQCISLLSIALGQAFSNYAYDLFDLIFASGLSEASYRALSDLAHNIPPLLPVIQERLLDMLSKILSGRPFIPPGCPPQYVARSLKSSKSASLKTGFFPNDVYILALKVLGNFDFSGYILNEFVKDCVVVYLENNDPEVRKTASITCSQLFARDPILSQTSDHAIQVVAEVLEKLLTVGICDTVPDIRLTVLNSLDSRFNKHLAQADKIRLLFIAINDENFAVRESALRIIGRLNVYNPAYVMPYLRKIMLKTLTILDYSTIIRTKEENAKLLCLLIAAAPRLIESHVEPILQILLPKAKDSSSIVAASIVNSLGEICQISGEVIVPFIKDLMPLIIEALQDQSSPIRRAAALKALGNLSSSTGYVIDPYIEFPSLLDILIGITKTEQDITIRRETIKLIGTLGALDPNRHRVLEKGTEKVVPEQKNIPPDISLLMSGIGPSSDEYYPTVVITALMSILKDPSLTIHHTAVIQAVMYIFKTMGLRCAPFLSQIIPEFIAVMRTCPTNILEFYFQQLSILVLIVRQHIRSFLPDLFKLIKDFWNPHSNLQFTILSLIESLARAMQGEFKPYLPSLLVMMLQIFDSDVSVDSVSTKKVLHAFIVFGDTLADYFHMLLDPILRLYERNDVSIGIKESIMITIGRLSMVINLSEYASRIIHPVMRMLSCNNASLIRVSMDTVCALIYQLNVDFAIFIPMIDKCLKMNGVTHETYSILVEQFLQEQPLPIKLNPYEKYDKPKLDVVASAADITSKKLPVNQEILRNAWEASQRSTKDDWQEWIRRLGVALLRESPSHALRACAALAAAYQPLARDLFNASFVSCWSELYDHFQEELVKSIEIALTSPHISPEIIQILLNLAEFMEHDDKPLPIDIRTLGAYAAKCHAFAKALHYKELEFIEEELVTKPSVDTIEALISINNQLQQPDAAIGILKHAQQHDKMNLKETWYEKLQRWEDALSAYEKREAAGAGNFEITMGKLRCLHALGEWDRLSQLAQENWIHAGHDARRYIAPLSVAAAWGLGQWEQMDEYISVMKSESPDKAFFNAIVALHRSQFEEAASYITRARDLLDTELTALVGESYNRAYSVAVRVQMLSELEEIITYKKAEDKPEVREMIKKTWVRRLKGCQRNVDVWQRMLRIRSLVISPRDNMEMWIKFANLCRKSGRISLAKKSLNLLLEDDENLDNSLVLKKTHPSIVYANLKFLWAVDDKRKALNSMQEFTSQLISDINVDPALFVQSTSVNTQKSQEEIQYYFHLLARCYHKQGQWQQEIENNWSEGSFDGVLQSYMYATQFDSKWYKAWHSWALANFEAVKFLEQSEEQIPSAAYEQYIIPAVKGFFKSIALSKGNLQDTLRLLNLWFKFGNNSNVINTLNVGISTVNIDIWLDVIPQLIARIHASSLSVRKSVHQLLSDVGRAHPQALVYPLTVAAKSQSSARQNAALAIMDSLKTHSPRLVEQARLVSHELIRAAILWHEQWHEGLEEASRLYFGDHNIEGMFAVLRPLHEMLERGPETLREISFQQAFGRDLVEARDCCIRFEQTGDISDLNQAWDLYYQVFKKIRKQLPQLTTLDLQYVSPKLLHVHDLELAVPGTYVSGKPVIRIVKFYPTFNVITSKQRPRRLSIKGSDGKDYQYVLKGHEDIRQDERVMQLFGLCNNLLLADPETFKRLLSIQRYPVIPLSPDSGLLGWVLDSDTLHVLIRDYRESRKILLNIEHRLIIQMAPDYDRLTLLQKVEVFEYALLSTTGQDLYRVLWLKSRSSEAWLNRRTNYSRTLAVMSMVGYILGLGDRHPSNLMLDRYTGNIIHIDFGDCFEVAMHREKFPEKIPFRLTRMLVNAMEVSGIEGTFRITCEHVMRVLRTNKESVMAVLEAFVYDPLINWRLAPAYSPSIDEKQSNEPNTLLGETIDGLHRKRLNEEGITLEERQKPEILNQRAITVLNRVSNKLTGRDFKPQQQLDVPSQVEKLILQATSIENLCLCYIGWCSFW

A further test deals with Tor2-FLAG (S. pombe) (UniProt Q9Y7K2). Description: co-IP; Tor2-FLAG IP from protein extracts of cycling cells (Figure 4C) and of cdc10-arrested mip1-R401G and mip1+ cells (Figure 4-figure supplement 1C), western blot.

These are yes or no findings as the source states them, for the method shown. Binding seen in cells or lysates may run through a third protein. Some entries that bind do so weakly or less than the wild type.

Consider Tor2-FLAG (from UniProt Q9Y7K2 1-2337), for which the binding entry in test [1] is listed as “binds”.

B1: Rad21-PK (cohesin kleisin subunit Rad21) (protein, UniProt P30776 1-628)
chain: MFYSEAILSKKGPLAKVWLAAHWEKKLSKVQTLHTSIEQSVHAIVTEETAPMALRLSGQLMLGVVRIYSRKARYLLEDCTEALMRLKMSFQPGQVDMIEPATALQSLKGKDAVTQSANLTLPETITEFDLLVPDSTFDFQWSQLLRTPSRSSNTLELHSLPISSSPSFPSSQLSIEAGRNAQVESGFSLGESFAHVGNDMQFHLPISNSGAATPRSVHSDNQSQISIEVGRDAPAAAATDLSGIIGPQMTKSPASSVTHFSTPSMLPIGGTSLDDELLAPVDDLNLDLGLDDLLGDEQGANAPAIEADEQAETSSIHLPSDIMEDDSSRPAAAGVEEGQVVESATAPQQEKINPQKTVRRQRAIIDPVTELSSKQMKKQLADTSSITSPLCLNTSSIVFNATVNFTRNGKFNTSIFSSNLNPKVNELLQADFKQAILRKRKNESPEEVEPAKHQRTDTSTENQETAEVLDPEEIAAAELANITEAAIATLPQETVVQPEGEAPELGSPMGFPVTALESADDSLFDAPPVMLDEADLLGSERLDSSVSEALPSSQTAKDSLRNKWDPYTEGEKVSFQTLSAGCNREEAVQLFFDVLVLATKDVISVKQDVAIQNEITLTAKRGMLLSSL
On to B1, for which the binding result with Tor2-FLAG (S. pombe) was “binds”.
